# According to PubChem BioAssay AID587 (National Center for Advancing Translational Sciences (NCATS), 2007):
# Out of some 59,000 compounds screened, about 35 (0.06%) were called active. The shares of active, inactive and inconclusive entries below differ from those in the screen. Rule as the data show it: active = max dye-equivalent concentration above about 10 nM; inconclusive = between about 1.1 nM and that limit; inactive = weaker than that.
# Test: qHTS Assay for Spectroscopic Profiling in Texas Red Spectral Region
# Details: Compound fluorescence, Texas Red channel, 547/618 nm; stronger effect = higher value
# In short: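 Fluorescence at ex 547/em 618 nm, normalized against an on-plate Texas Red standard series to give dye-equivalent concentration per compound concentration. Buffer 100 mM Tris, pH 8.0; 15 min RT incubation before CCD imaging.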
row,SMILES,max dye-equivalent concentration
1,CCCn1nnnc1NCc1cccn1C,inconclusive: 1.5 nM
2,Nc1csnc1C(=O)O,inconclusive: 1.1 nM
3,O=C(c1c(Cl)nc2sccn12)N(C(=O)c1c(Cl)nc2sccn12)c1ccc(Cl)cn1,inconclusive: 1.1 nM
4,O=C1CC(N2CCN(S(=O)(=O)c3cccc(C(F)(F)F)c3)CC2)C(=O)N1Cc1ccccc1 (stereo unspecified),inconclusive: 2 nM
5,CCCNCC(O)COc1ccccc1C(=O)CCc1ccccc1 (stereo unspecified),inconclusive: 1.1 nM
6,CCOC(=O)N1CCN(c2ncnc3c2oc2nc(C)c4c(c23)CC(C)(C)OC4)CC1,inconclusive: 1.6 nM
7,Cc1[nH]c2ccccc2c1NC(=O)CN1CCN(Cc2ccc3c(c2)OCO3)CC1,inconclusive: 1.4 nM
8,CC(C)Oc1ccc(N2CC(C(=O)Nc3ccccc3F)CC2=O)cc1 (stereo unspecified),inconclusive: 1.4 nM
9,CC(NS(C)(=O)=O)C(c1cccs1)N1CCN(C)CC1 (stereo unspecified),inconclusive: 1.2 nM
10,CN(C)CCNc1nc2c(c(=O)[nH]c(=O)n2C)n1CC(O)COc1ccc(Cl)cc1Cl (stereo unspecified),inconclusive: 1.3 nM
11,CSc1ccc(C2Nc3ccccc3-c3cc(C)nn32)cc1 (stereo unspecified),inconclusive: 1.7 nM
12,Cc1onc(-c2ccccc2Cl)c1C(=O)NCc1cccs1,inconclusive: 1.1 nM
13,CCOC(=O)C1CCN(C(=O)COC(=O)COc2ccccc2OC)CC1,inconclusive: 1.2 nM
14,O=C1[C@@H]2[C@H](Cc3ccc(O)cc3)N[C@]3(C(=O)Nc4ccccc43)[C@@H]2C(=O)N1c1ccc(F)cc1,inconclusive: 1.2 nM
15,CCOC(=O)c1sc(=NC(=O)c2ccc(S(=O)(=O)N3CC(C)OC(C)C3)cc2)n(C)c1C (stereo unspecified),inactive
16,Cc1cc(NC(=O)c2cc(Cl)ccc2Cl)no1,inconclusive: 1.6 nM
17,COc1ccc(C(=O)Nc2ccccc2)cc1S(=O)(=O)Nc1cc(C)on1,inconclusive: 1.4 nM
18,CN1CCN(c2ncnc3ccc(-c4ccccc4Cl)cc23)CC1,inactive
19,c1ccc(-c2nn3nnnc3c3ccccc23)cc1,inconclusive: 1.2 nM
20,COc1ccccc1CN1CC2(CCN(S(C)(=O)=O)CC2)C1,inactive
21,CCc1ccc(NC(=O)CC2NCCNC2=O)cc1 (stereo unspecified),inconclusive: 1.1 nM
22,COC(=O)c1nc(NC(C)=O)n[nH]1,inconclusive: 2 nM

# 3 structures out of the list, ordered by molecular weight, largest number first.
row,SMILES,max dye-equivalent concentration
12,Cc1onc(-c2ccccc2Cl)c1C(=O)NCc1cccs1,inconclusive: 1.1 nM
20,COc1ccccc1CN1CC2(CCN(S(C)(=O)=O)CC2)C1,inactive
22,COC(=O)c1nc(NC(C)=O)n[nH]1,inconclusive: 2 nM

# Additional compounds:

row,SMILES,max dye-equivalent concentration
1,CN(C(=O)CSc1nnc(NC2CCCCC2)s1)C1CCS(=O)(=O)C1 (stereo unspecified),inconclusive: 1.3 nM
2,O=C(CSc1nnc(-c2ccccc2F)n1C1CCCCC1)N1CCCC1,inconclusive: 1.2 nM
3,Cc1nn(-c2ccccc2)c2c1C(c1ccco1)C(C#N)=C(N)O2 (stereo unspecified),inconclusive: 1.8 nM
4,Cc1cc(=O)[nH]c(SCC(=O)NCc2ccco2)n1,inconclusive: 1.4 nM
5,Cc1ccc(OCc2nnc(SCC(=O)NCc3ccccc3)n2C)cc1,inconclusive: 2.8 nM
6,N#C/C(=C(/O)COC(=O)CCC1CCCCC1)c1nc2ccccc2[nH]1,inconclusive: 1.4 nM
7,Cc1cc(NC(=O)Cn2nc(C(F)(F)F)c3c2CCCC3)no1,inactive
8,CCOC(=O)c1c(C)nc2c(C#N)cnn2c1C,inconclusive: 1.5 nM
9,CCC1(C)Cc2ccccc2-c2c1c(=O)n(Cc1ccccc1)c1nnnn21 (stereo unspecified),inconclusive: 1.2 nM
10,Cn1c(=O)c2[nH]c(CS(=O)(=O)Cc3nc4c([nH]3)c(=O)n(C)c(=O)n4C)nc2n(C)c1=O,inconclusive: 1.7 nM
11,Cc1cc(Nc2ncc(Cl)cc2Cl)n[nH]1,inconclusive: 1.9 nM
12,Cc1ccc(NC(=O)CN(C)S(=O)(=O)c2cccc3nsnc23)cc1C,inconclusive: 2.1 nM
13,COC(=O)c1ccccc1OCC(=O)NC1CCCCC1,inconclusive: 1.1 nM
14,CC(C)NC(=O)CN(C)S(=O)(=O)c1ccc(F)cc1,inconclusive: 1.4 nM
15,CS(=O)(=O)NC1CCN(Cc2ccccc2)CC1,inconclusive: 2.4 nM
16,CCn1c2ccccc2c2nnc(SCc3cc(=O)n4ccsc4n3)nc21,inactive
17,COC(=O)c1ccsc1NC(=O)CN1CCN(c2ccc(F)cc2)CC1,inconclusive: 1.3 nM
18,CC(C)Oc1ccc(C(CC(=O)O)NC(=O)CSc2ncn[nH]2)cc1 (stereo unspecified),inconclusive: 1.8 nM
19,O=C(CN1C(=O)CCS(=O)(=O)c2ccccc21)Nc1ccc2c(c1)OCCO2,inconclusive: 1.2 nM
20,O=C(O)c1c(Br)c(Br)c(Br)c(Br)c1C1c2ccc(O)cc2Oc2cc(O)ccc21,inconclusive: 1.5 nM
21,CC(C)C(=O)Nc1cc(C(F)(F)F)ccc1N1CCOCC1,inconclusive: 1.2 nM
22,Cc1cc(N2CCOCC2)nc2ccc(Cc3ccc4nc(N5CCOCC5)cc(C)c4c3)cc12,inconclusive: 1.4 nM

# Gathered by group, those above containing a halogen (15)
row,SMILES,max dye-equivalent concentration
3,O=C(c1c(Cl)nc2sccn12)N(C(=O)c1c(Cl)nc2sccn12)c1ccc(Cl)cn1,inconclusive: 1.1 nM
4,O=C1CC(N2CCN(S(=O)(=O)c3cccc(C(F)(F)F)c3)CC2)C(=O)N1Cc1ccccc1 (stereo unspecified),inconclusive: 2 nM
8,CC(C)Oc1ccc(N2CC(C(=O)Nc3ccccc3F)CC2=O)cc1 (stereo unspecified),inconclusive: 1.4 nM
10,CN(C)CCNc1nc2c(c(=O)[nH]c(=O)n2C)n1CC(O)COc1ccc(Cl)cc1Cl (stereo unspecified),inconclusive: 1.3 nM
12,Cc1onc(-c2ccccc2Cl)c1C(=O)NCc1cccs1,inconclusive: 1.1 nM
14,O=C1[C@@H]2[C@H](Cc3ccc(O)cc3)N[C@]3(C(=O)Nc4ccccc43)[C@@H]2C(=O)N1c1ccc(F)cc1,inconclusive: 1.2 nM
16,Cc1cc(NC(=O)c2cc(Cl)ccc2Cl)no1,inconclusive: 1.6 nM
18,CN1CCN(c2ncnc3ccc(-c4ccccc4Cl)cc23)CC1,inactive
2,O=C(CSc1nnc(-c2ccccc2F)n1C1CCCCC1)N1CCCC1,inconclusive: 1.2 nM
7,Cc1cc(NC(=O)Cn2nc(C(F)(F)F)c3c2CCCC3)no1,inactive
11,Cc1cc(Nc2ncc(Cl)cc2Cl)n[nH]1,inconclusive: 1.9 nM
14,CC(C)NC(=O)CN(C)S(=O)(=O)c1ccc(F)cc1,inconclusive: 1.4 nM
17,COC(=O)c1ccsc1NC(=O)CN1CCN(c2ccc(F)cc2)CC1,inconclusive: 1.3 nM
20,O=C(O)c1c(Br)c(Br)c(Br)c(Br)c1C1c2ccc(O)cc2Oc2cc(O)ccc21,inconclusive: 1.5 nM
21,CC(C)C(=O)Nc1cc(C(F)(F)F)ccc1N1CCOCC1,inconclusive: 1.2 nM

# Later entries.

row,SMILES,max dye-equivalent concentration
1,CC(C)(CS)C(=O)N1CCC[C@H]1C(=O)O,inconclusive: 1.2 nM
2,COc1ccc(C2CC(=O)C3=C(C2)Nc2ccccc2N(C(C)=O)C3c2ccco2)cc1 (stereo unspecified),inconclusive: 1.2 nM
3,O=S(=O)(O)c1ccc2cc(N=Nc3cc(S(=O)(=O)O)c4cccnc4c3O)ccc2c1,inconclusive: 1.2 nM
4,CC1CCN(c2ccc(NC(=O)c3cccnc3)cc2)CC1,inconclusive: 2.3 nM
5,O=C1OCc2cc(NC(=O)C3CCCCC3)ccc21,inconclusive: 1.6 nM
6,CCNC(=O)/N=C1/NC(=O)C(C(C)C)O1 (stereo unspecified),inconclusive: 1.6 nM
7,COc1ccc(S(=O)(=O)N(C)CC(=O)N2CCC(C(N)=O)CC2)cc1,inconclusive: 2.7 nM
8,CCC1(c2ccc(F)cc2)NC(=O)N(CC(=O)N2CCOCC2)C1=O (stereo unspecified),inconclusive: 1.5 nM
9,CCOC(=O)N1CCC(NS(=O)(=O)c2ccc3c(c2)oc(=O)n3C)CC1,inconclusive: 1.6 nM
10,O=C(CSc1ccc2nnc(-c3ccc(F)cc3)n2n1)N1CCCCC1,inconclusive: 1.9 nM
11,COc1ccc(-n2c(=O)c(-c3cccs3)nc3cnc(Oc4ccccc4)nc32)cc1,inactive
12,O=C(CSc1nnnn1-c1ccccc1)Nc1ccc(Cl)cn1,inconclusive: 1.1 nM
13,CCC(C)(C)n1nnnc1CN(Cc1cc2cc(OC)c(OC)cc2[nH]c1=O)C1CCCC1,inconclusive: 1.3 nM
14,COC(=O)Cn1c(C)c(C(C)=O)c(C(C)=O)c1C,inconclusive: 1.7 nM
15,CC(C)(C)c1[nH]nc2c1C(c1ccccc1OC(=O)N1CCOCC1)C(C#N)=C(N)O2 (stereo unspecified),inconclusive: 1.3 nM
16,C=C(C)COc1ccc(-c2nc(N)ncc2-c2ccc(OC)cc2)c(O)c1,inconclusive: 2.2 nM
17,Clc1cc(Cl)c2nc(N3CCCC3)sc2c1,inconclusive: 1.1 nM
18,Cn1nnnc1SCCNCc1cccnc1,inconclusive: 1.1 nM
19,COc1ccc(C2C(C(=O)N3CC(C)CC(C)C3)c3ccccc3C(=O)N2C)cc1 (stereo unspecified),inconclusive: 1.1 nM
20,O=C1CCCC(=NCc2ccco2)C1,inconclusive: 1.6 nM
21,C[C@H](NC(=O)OC(C)(C)C)c1nnc(SCC(=O)c2ccc(Cl)cc2)o1,inconclusive: 1.1 nM
22,O=c1c2ccccc2c(/C=N/n2cnnc2)c(O)n1-c1ccccc1F,inactive

row,SMILES,max dye-equivalent concentration
1,Cn1c(CNc2nc3ccccc3n2CCN2CCCCC2)nc2ccccc21,inconclusive: 2.9 nM
2,CCn1c(Sc2ccc(N)cc2Cl)nc2ccccc21,inconclusive: 1.7 nM
3,CN(C)c1nc(N(C)C)nc(N(C)C)n1,inconclusive: 1.6 nM
4,Cc1nnc(NC(=O)Nc2cccc(Cl)c2)s1,inconclusive: 1.4 nM
5,O=C(O)c1ccc2c3c(ncnc13)-c1ccccc1C2=O,inconclusive: 2.9 nM
6,COc1cccc(N(CC(=O)N2CCN(C)CC2)S(=O)(=O)c2ccc(C)cc2)c1,inconclusive: 1.1 nM
7,O=c1cc(CN2CCN(Cc3ccccc3)CC2)c2cc(Cl)ccc2o1,inconclusive: 1.2 nM
8,O=c1[nH][nH]c(=O)c2cc(N3CCCC3)ccc12,inactive
9,Cc1cc(C)c(N2C(=NC(=O)CCCC(=O)O)SC3CS(=O)(=O)CC32)c(C)c1 (stereo unspecified),inconclusive: 1.5 nM
10,CCOCCCn1c(C)nc2c(c1=O)c1nc3ccccc3nc1n2-c1ccc(C)cc1,inconclusive: 1.1 nM
11,O=C(COn1nnc2ccccc21)NCC1CCCCC1,inconclusive: 1.3 nM
12,COc1ccc(OC)c([C@H]2Nc3ccccc3NC3=C2C(=O)CC(C)(C)C3)c1Br,inconclusive: 1.3 nM
13,Nc1ccn([C@@H]2O[C@@H](CO)[C@@H](O)[C@H]2O)c(=O)n1,inactive
14,Cc1cc(NC(=O)Cn2cnc3c(cnn3C(C)(C)C)c2=O)no1,inconclusive: 1.1 nM
15,COC(=O)c1ccc(N2C(=O)CC(NCc3ccccc3)C2=O)cc1 (stereo unspecified),inconclusive: 1.2 nM
16,CCN(CC)C(=O)CSc1nc2ccccc2c(=O)n1CCC(=O)NCc1ccc(F)cc1,inconclusive: 1.4 nM
17,COc1ccccc1N1CCN(c2nc(C)nc3c2oc2ccccc23)CC1,inconclusive: 1.3 nM
18,COc1ccc(C(=O)NCCn2ccc3ccccc32)cc1,inconclusive: 1.4 nM
19,COc1cc(NC(=O)C2CCCCC2)c(OC)cc1NC(=O)CN1CCCCC1,inconclusive: 1.3 nM
20,C=CCOC(=O)C1=C(C)NC2(O)c3ccccc3C(=O)C12O (stereo unspecified),inconclusive: 2.4 nM
